The text below walks through data of publication PMC7086348.

Assay [1] addresses T1, HA-RFP-TMEM16A (UniProt Q8BHY3).
T1 sequence: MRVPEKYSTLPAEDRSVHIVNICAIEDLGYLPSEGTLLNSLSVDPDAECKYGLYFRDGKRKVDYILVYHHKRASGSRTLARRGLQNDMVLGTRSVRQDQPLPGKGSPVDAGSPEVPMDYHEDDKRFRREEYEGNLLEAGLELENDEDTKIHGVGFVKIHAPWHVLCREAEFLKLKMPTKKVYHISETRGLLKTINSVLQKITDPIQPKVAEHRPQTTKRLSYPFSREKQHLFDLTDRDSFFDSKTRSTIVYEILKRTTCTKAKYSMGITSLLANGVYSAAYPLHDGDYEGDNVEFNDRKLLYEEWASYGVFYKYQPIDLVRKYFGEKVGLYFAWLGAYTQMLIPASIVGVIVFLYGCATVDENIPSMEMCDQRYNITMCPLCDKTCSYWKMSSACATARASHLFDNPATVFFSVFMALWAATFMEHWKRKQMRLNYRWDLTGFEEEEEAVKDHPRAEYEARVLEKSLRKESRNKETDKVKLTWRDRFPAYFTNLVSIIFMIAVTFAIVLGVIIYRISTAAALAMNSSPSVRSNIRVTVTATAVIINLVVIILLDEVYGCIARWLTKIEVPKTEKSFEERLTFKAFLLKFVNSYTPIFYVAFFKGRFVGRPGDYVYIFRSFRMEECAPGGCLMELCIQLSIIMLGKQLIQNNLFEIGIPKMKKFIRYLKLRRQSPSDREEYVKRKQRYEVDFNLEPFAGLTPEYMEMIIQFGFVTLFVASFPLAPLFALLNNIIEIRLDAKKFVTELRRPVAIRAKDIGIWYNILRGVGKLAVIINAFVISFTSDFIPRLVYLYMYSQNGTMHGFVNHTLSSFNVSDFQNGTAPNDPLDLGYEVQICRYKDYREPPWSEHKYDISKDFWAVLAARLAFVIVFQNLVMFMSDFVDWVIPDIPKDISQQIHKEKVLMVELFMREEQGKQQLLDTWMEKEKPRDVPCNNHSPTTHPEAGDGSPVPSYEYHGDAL
The assay is described as follows: co-IP; MASMCs co-transfected with HA-RFP-TMEM16A and His-p62; immunoprecipitation with HA or His antibody, blot for His or HA.

Assay [2] deals with His-p62. The assay is described as above.

Results are given in words; binding and its absence hold for the method and conditions named. In cells and extracts the contact can be indirect. Binding calls can cover weak binding; strength is not graded here. Where a sequence is shown, tags or fusion partners need not be part of it.

Turning to His-p62, the binding result in assay [1] is on record as “binds”.

B1: HA-RFP-TMEM16A (protein, UniProt Q8BHY3 1-960)
chain: MRVPEKYSTLPAEDRSVHIVNICAIEDLGYLPSEGTLLNSLSVDPDAECKYGLYFRDGKRKVDYILVYHHKRASGSRTLARRGLQNDMVLGTRSVRQDQPLPGKGSPVDAGSPEVPMDYHEDDKRFRREEYEGNLLEAGLELENDEDTKIHGVGFVKIHAPWHVLCREAEFLKLKMPTKKVYHISETRGLLKTINSVLQKITDPIQPKVAEHRPQTTKRLSYPFSREKQHLFDLTDRDSFFDSKTRSTIVYEILKRTTCTKAKYSMGITSLLANGVYSAAYPLHDGDYEGDNVEFNDRKLLYEEWASYGVFYKYQPIDLVRKYFGEKVGLYFAWLGAYTQMLIPASIVGVIVFLYGCATVDENIPSMEMCDQRYNITMCPLCDKTCSYWKMSSACATARASHLFDNPATVFFSVFMALWAATFMEHWKRKQMRLNYRWDLTGFEEEEEAVKDHPRAEYEARVLEKSLRKESRNKETDKVKLTWRDRFPAYFTNLVSIIFMIAVTFAIVLGVIIYRISTAAALAMNSSPSVRSNIRVTVTATAVIINLVVIILLDEVYGCIARWLTKIEVPKTEKSFEERLTFKAFLLKFVNSYTPIFYVAFFKGRFVGRPGDYVYIFRSFRMEECAPGGCLMELCIQLSIIMLGKQLIQNNLFEIGIPKMKKFIRYLKLRRQSPSDREEYVKRKQRYEVDFNLEPFAGLTPEYMEMIIQFGFVTLFVASFPLAPLFALLNNIIEIRLDAKKFVTELRRPVAIRAKDIGIWYNILRGVGKLAVIINAFVISFTSDFIPRLVYLYMYSQNGTMHGFVNHTLSSFNVSDFQNGTAPNDPLDLGYEVQICRYKDYREPPWSEHKYDISKDFWAVLAARLAFVIVFQNLVMFMSDFVDWVIPDIPKDISQQIHKEKVLMVELFMREEQGKQQLLDTWMEKEKPRDVPCNNHSPTTHPEAGDGSPVPSYEYHGDAL
Consider B1, for which the binding entry in assay [2] was “binds”.
